Test results from patent publication US20230371508A1, “COMPOSITIONS AND METHODS FOR KILLING INSECT AND NON-INSECT PESTS” (The United States of America, as represented by the …, priority 2018, published 2023).

Experiments:
H. halys nymphs = assay: Nymphicidal toxicity, treated filter paper in glass vial; assay type: in vivo; details: probit slope
Procedure: Toxicities of MB, some compounds of formula 1, and commercial pesticides on H. halys nymphs: The bioassays were carried out in glass vials (20 mL), following a published procedure (Nielsen, A. L., et al., J. Econ. Entomol., 101: 1439-1442 (2008)). Filter paper was cut into round shape pieces (2.4 cm diameter). 50 μL acetone solution of one derivative or commercial pesticide with different concentrations was loaded onto the filter paper evenly, and the filter paper was dried for 1 min and then put into the bottom of vial. A small piece of green bean was put on the filter paper in the vial as food source. Different stages of H. halys nymphs were introduced into the vial and capped with a cotton ball. For each stage, 30 nymphs were used for each amount. For the nymphs of the first instar, 10 nymphs were put into 1 vial. For the nymphs of the second and third instar, 5 nymphs were put into 1 vial. For the nymphs of the fourth instar, 3 nymphs were put into 1 vial. For the nymphs of the fifth instar, 2 nymphs were put into 1 vial. The mortality was assessed after 24 hr.

L. dispar larvae = assay: Larvicidal toxicity, treated filter paper in Petri dish; assay type: in vivo; details: probit slope
Procedure: Toxicities of MB and some compounds of formula 1 on L. dispar larvae: The bioassays were carried out in plastic Petri dish loaded with filter paper, following a published procedure (Nielsen 2008). 600 μL acetone solution of one derivative with different concentrations was loaded onto the filter paper (90 mm diameter) evenly, and the filter paper was dried for 2 min and then put into the bottom of Petri dish. 10 L. dispar larvae were put onto the Petri dish and covered with a lid. 30 larvae were used for each amount. The mortality was assessed after 24 hr.

H. halys eggs = assay: Ovicidal toxicity, direct spray on eggs; assay type: in vivo; details: probit slope
Source text: Ovicidal toxicities of MB and some compounds of formula 1: The aqueous solutions of one of the compounds of formula 1 with designated concentrations with different concentrations of active ingredient (AI) were separately stored in glass spray bottles according to a published procedure (Cuthbertson 2014). The eggs (10 for H. halys and 100 for P. xylostella) were laid on filter papers in Petri dishes. Different aqueous insecticidal solutions were sprayed on the surfaces of different eggs three times (˜0.5 mL) to completely cover the treatment areas. Then the Petri dishes were covered with lids and maintained in a fume hood for 10 days. The Petri dishes were then inspected for presence of nymph/larvae development or numbers of unhatched eggs.

S. invicta workers = assay: Fumigant toxicity in sealed glass flask; assay type: in vivo, Solenopsis invicta
Procedure: A 250-ml glass flask (the whole volume is 280 ml) was used to house worker ants in fumigant toxicity bioassays. Two micro-liter of acetone solution of the tested compound was applied onto a paraffin film, which was used to seal the flask with ants. The treated spot of the paraffin film faced the inside of the flask. The upper part of the flask was coated with Fluon® to prevent ants from contacting the test material. Two experiments were conducted. […] LC50 value was established using 5 dosages. Each dosage was replicated 3 times for each of 3 colonies. Each replicate consisted of 15 to 26 ants. Ants that could not stand by themselves were considered dead. Dead ants were counted after 24 h.

Structure (SMILES)	Slope ± SE (H. halys nymphs; 4th stage nymphs)	Slope ± SE (L. dispar larvae)	Slope ± SE (H. halys eggs)	Slope (mean ± SE) (S. invicta workers; colony 1)	Slope (mean ± SE) (S. invicta workers; colony 2)	Slope (mean ± SE) (S. invicta workers; colony 3)	Slope ± SE (H. halys nymphs; 3rd stage nymphs)	Slope ± SE (H. halys nymphs; 5th stage nymphs)	Slope ± SE (H. halys nymphs; 2nd stage nymphs)
CCCCOC(=O)c1ccccc1 [nBB, n-butyl benzoate]	2.752 ± 0.593	2.264 ± 0.385	0.369 ± 0.206						
COC(=O)c1cccc(C)c1 [M3MB, methyl 3-methylbenzoate]	3.606 ± 0.618	4.693 ± 0.540	2.128 ± 0.399	7.55 ± 0.73	10.52 ± 1.09	9.72 ± 0.96			
CC(C)COC(=O)c1ccccc1 [iBB, iso-butyl benzoate]		2.683 ± 0.386	0.016 ± 0.214				1.821 ± 0.487		
COC(=O)c1ccccc1[N+](=O)[O-] [M2NB, methyl 2-nitrobenzoate]		1.168 ± 0.545	2.028 ± 0.389				3.175 ± 0.615		
CCCCCOC(=O)c1ccccc1 [nPeB, n-pentyl benzoate]		2.466 ± 0.354	0.184 ± 0.207				1.884 ± 0.809		
O=C(OCc1ccccc1)c1ccccc1 [BB, benzyl benzoate]	1.691 ± 0.485	2.858 ± 0.535	0.016 ± 0.213						
CCCOC(=O)c1ccccc1 [nPrB, n-propyl benzoate]		2.576 ± 0.402	0.571 ± 0.206				3.427 ± 0.614		
CCCCCCOC(=O)c1ccccc1 [nHB, n-hexyl benzoate]		2.012 ± 0.843	0.033 ± 0.216					1.679 ± 0.785	
COC(=O)c1ccccc1Cl [M2CB, methyl 2-chlorobenzoate]		7.291 ± 0.868	3.724 ± 0.816	6.35 ± 0.71	4.62 ± 0.50	7.24 ± 0.68			5.568 ± 0.849
C/C(=N\C#N)N(C)Cc1ccc(Cl)nc1 [AP, acetamiprid, reference compound]		3.150 ± 0.419					1.750 ± 0.272	3.164 ± 0.394	2.078 ± 0.325
C=COC(=O)c1ccccc1 [VB, vinyl benzoate]		10.082 ± 1.640	2.974 ± 0.620	9.46 ± 0.87	25.99 ± 2.39	16.07 ± 2.18			6.245 ± 1.155
COC(=O)c1ccccc1OC [M2MOB, methyl 2-methoxybenzoate]		2.971 ± 0.487	3.724 ± 0.816						4.393 ± 0.657
COC(=O)c1ccccc1C [M2MB, methyl 2-methylbenzoate]		6.671 ± 0.766	1.144 ± 0.247						4.165 ± 0.536
CC(COc1ccc(Oc2ccccc2)cc1)Oc1ccccn1 (stereo not shown) [PF, pyriproxyfen, reference compound]		2.429 ± 0.263					3.018 ± 0.450	2.315 ± 0.327	
COC(=O)c1cccc(OC)c1 [M3MOB, methyl 3-methoxybenzoate]		8.073 ± 1.126	2.327 ± 0.566	6.25 ± 0.84	5.24 ± 0.56	5.03 ± 0.51	3.549 ± 0.478		
